Laboratory results from US9499529B2 (California State University Fresno, priority 2013, dated 2016).
Entries after “also recorded” stand apart in the source; their conditions may differ. Like-named read-outs stand apart in the source and are kept apart here. Some results were stated once for a whole list of compounds, not compound by compound. For some assays here: At least one structure is not confirmed: it was looked up by name or label, or the drawing left a doubt.

Key:
[1] = system: HeLa cervical cancer cells; assay: HeLa cell viability after treatment with analog (cell count, cell viability analyzer); type: cell-based, human; conditions: 10 μM and 1 μM, three days
Protocol: Cell numbers were counted with a cell viability analyzer (Beckman-Coulter). The ratio of drug treated viable cell numbers to control vehicle (DMSO) treated viable cell numbers was defined as percentage viability. […] Compound nos.
The HeLa cells used in the experiments summarized by Table 5 were cultured in RPMI-1640 medium supplemented with 10% FBS, 4 mM glutamine, 1 mM sodium pyruvate, 100 IU/mL penicillin, 100 ug/mL streptomycin and 0.25 ug/mL amphotericin. The HeLa cells were plated in 24-well plates at a density of 20,000 cells in each well in 10% FBS RPMI-1640. […] Cell numbers were counted with a cell viability analyzer (Beckman-Coulter). […]

[2] = system: PC-3 prostate cancer cells; assay: In vitro cytotoxicity against PC-3 prostate cancer cells; type: cell-based, human; conditions: PC-3 cells; for IC50: five days
Protocol: (§1) The half maximal inhibitory concentration (IC50) is a measure of the effectiveness of a substance in inhibiting a specific biological or biochemical function. It is commonly used as a measure of antagonist drug potency.
Cell cultures were maintained in 5% carbon dioxide at a temperature of 37° C. […] Cell numbers were counted with a cell viability analyzer (Beckman-Coulter). […] A preliminary dose response curve was prepared from the collected data by means well known to those of ordinary skill in the art.
(§2) The six different concentrations fell within a selected linear concentration range determined by reference to the preliminary dose response curve and efforts to estimate the concentration at which 50% of the cell growth would be inhibited. The selected six different concentrations were used to further fill out the dose response curve to pinpoint a more exact IC50 value.

[3] = system: DU-145 prostate cancer cells; assay: In vitro cytotoxicity against DU-145 prostate cancer cells; type: cell-based, human; conditions: DU-145 cells, five days
Protocol: as §1
Cell numbers were counted with a cell viability analyzer (Beckman-Coulter).
(§3) A preliminary dose response curve was prepared from the collected data by means well known to those of ordinary skill in the art.
as §2

[4] = system: HeLa cervical cancer cells; assay: In vitro cytotoxicity against HeLa cervical cancer cells; type: cell-based, human; conditions: for IC50: three days
Protocol: as §1
Cell numbers were counted with a cell viability analyzer (Beckman-Coulter). The ratio of drug treated viable cell numbers to vehicle treated viable cell numbers was defined as percentage viability.
as §3, §2

[5] = system: MCF-10A normal mammary epithelial cells; assay: Cytotoxicity towards non-cancerous MCF-10A cells (FIG. 9); type: cell-based; conditions: at all three concentrations (1 μM, 0.1 μM, 0.01 μM)
Protocol: The MCF-10A normal mammary epithelial cells were cultured in RPMI-1640 medium supplemented with 10% FBS, 4 mM glutamine, 1 mM sodium pyruvate, 100 IU/mL penicillin, 100 ug/mL streptomycin and 0.25 ug/mL amphotericin. The MCF-10A cells were plated in 24-well plates at a density of 20,000 each well in 10% FBS RPMI-1640 or DMED medium. […] Cell numbers were counted with a cell viability analyzer (Beckman-Coulter).

Cc1cc(/C=C2\CCC/C(=C\c3cc(C)on3)C2=O)no1 [Compound 8, (2E,6E)-2,6-Bis((5-methylisoxazol-3-yl)methylene)cyclohexanone]
decrease of HeLa cervical cancer cell viability (in words) [1]: decrease the number of HeLa cervical cancer cells still alive after three days; also recorded: reduce significantly the percentage viability | IC50 (curcumin)/IC50 (analog) [2]: greater than 1 | IC50 ([2]; listed as compound 8): < 1.98 µM | IC50 ([3]; listed as compound 8): < 0.3 µM | IC50 (curcumin)/IC50 (analog) [4]: greater than 13 | IC50 ([4]; listed as compound 8): < 10.5 µM

Cc1cc(/C=C2\CCC/C(=C\c3cc(C)on3)C2=O)no1 [Compound 18, (2E,6E)-2,6-Bis((5-methylisoxazol-3-yl)methylene)cyclohexanone]
decrease of HeLa cervical cancer cell viability (in words) [1]: decrease the number of HeLa cervical cancer cells still alive after three days | IC50 (curcumin)/IC50 (analog) [2]: greater than 1 | IC50 ([2]; listed as compound 18): < 1.98 µM | IC50 ([3]; listed as compound 18): < 0.3 µM | IC50 (curcumin)/IC50 (analog) ([4]; listed as compound 18): greater than 13 | IC50 ([4]; listed as compound 18): < 10.5 µM

CCC(C)n1ccnc1/C=C/C(=O)/C=C/c1nccn1C(C)CC (centres unmarked) [Compound 21]
decrease of HeLa cervical cancer cell viability (in words) [1]: decrease the number of HeLa cervical cancer cells still alive after three days | IC50 (curcumin)/IC50 (analog) [2]: greater than 1 | IC50 ([2]; listed as compound 21): < 1.98 µM | IC50 ([3]; listed as compound 21): < 0.3 µM | IC50 (curcumin)/IC50 (analog) ([4]; listed as compound 21): greater than 13 | IC50 ([4]; listed as compound 21): < 10.5 µM | MCF-10A cell viability [5]: ≥ 80%

CC(C)Cn1ccnc1/C=C/C(=O)/C=C/c1nccn1CC(C)C [Compound 22]
decrease of HeLa cervical cancer cell viability (in words) [1]: decrease the number of HeLa cervical cancer cells still alive after three days | IC50 (curcumin)/IC50 (analog) [2]: greater than 1 | IC50 ([2]; listed as compound 22): < 1.98 µM | IC50 ([3]; listed as compound 22): < 0.3 µM | IC50 (curcumin)/IC50 (analog) ([4]; listed as compound 22): greater than 13 | IC50 ([4]; listed as compound 22): < 10.5 µM | MCF-10A cell viability [5]: ≥ 80%

Cc1cc(/C=C/C(=O)/C=C/c2cc(C)no2)on1 [Compound 28, (1E,4E)-1,5-Bis(3-methylisoxazol-5-yl)penta-1,4-dien-3-one]
decrease of HeLa cervical cancer cell viability (in words) [1]: decrease the number of HeLa cervical cancer cells still alive after three days | IC50 ([2]; listed as compound 28): < 1.98 µM | IC50 ([3]; listed as compound 28): < 0.3 µM | IC50 ([4]; listed as compound 28): < 10.5 µM

O=C(/C=C/c1cncs1)/C=C/c1cncs1 [Compound 29]
decrease of HeLa cervical cancer cell viability (in words) [1]: decrease the number of HeLa cervical cancer cells still alive after three days

Cc1noc(C)c1/C=C/C(=O)/C=C/c1c(C)noc1C [Compound 30]
decrease of HeLa cervical cancer cell viability (in words) [1]: decrease the number of HeLa cervical cancer cells still alive after three days

Cc1csc(/C=C/C(=O)/C=C/c2nc(C)cs2)n1 [Compound 31]
decrease of HeLa cervical cancer cell viability (in words) [1]: decrease the number of HeLa cervical cancer cells still alive after three days

O=C(/C=C/c1ccncc1F)/C=C/c1ccncc1F [Compound 36]
decrease of HeLa cervical cancer cell viability (in words) [1]: decrease the number of HeLa cervical cancer cells still alive after three days

O=C(/C=C/c1cocn1)/C=C/c1cocn1 [Compound 37]
decrease of HeLa cervical cancer cell viability (in words) [1]: decrease the number of HeLa cervical cancer cells still alive after three days

Cn1cc(/C=C/C(=O)/C=C/c2cnn(C)c2)cn1 [Compound 38]
decrease of HeLa cervical cancer cell viability (in words) [1]: decrease the number of HeLa cervical cancer cells still alive after three days

Cn1c(/C=C/C(=O)/C=C/c2nc3ccccc3n2C)nc2ccccc21 [Compound 39]
decrease of HeLa cervical cancer cell viability (in words) [1]: decrease the number of HeLa cervical cancer cells still alive after three days

CC(C)n1c(/C=C/C(=O)/C=C/c2nc3ccccc3n2C(C)C)nc2ccccc21 [Compound 40]
decrease of HeLa cervical cancer cell viability (in words) [1]: decrease the number of HeLa cervical cancer cells still alive after three days

CCC(C)n1c(/C=C/C(=O)/C=C/c2nc3ccccc3n2C(C)CC)nc2ccccc21 (centres unmarked) [Compound 42]
decrease of HeLa cervical cancer cell viability (in words) [1]: decrease the number of HeLa cervical cancer cells still alive after three days

CCCC(C)n1c(/C=C/C(=O)/C=C/c2nc3ccccc3n2C(C)CCC)nc2ccccc21 (centres unmarked) [Compound 43]
decrease of HeLa cervical cancer cell viability (in words) [1]: decrease the number of HeLa cervical cancer cells still alive after three days; also recorded: reduce significantly the percentage viability

CC(C)CCn1c(/C=C/C(=O)/C=C/c2nc3ccccc3n2CCC(C)C)nc2ccccc21 [Compound 44]
decrease of HeLa cervical cancer cell viability (in words) [1]: decrease the number of HeLa cervical cancer cells still alive after three days; also recorded: reduce significantly the percentage viability

CCC(CC)n1c(/C=C/C(=O)/C=C/c2nc3ccccc3n2C(CC)CC)nc2ccccc21 [Compound 45]
decrease of HeLa cervical cancer cell viability (in words) [1]: decrease the number of HeLa cervical cancer cells still alive after three days; also recorded: reduce significantly the percentage viability | IC50 (curcumin)/IC50 (analog) ([4]; listed as compound 45): greater than 13 | IC50 ([4]; listed as compound 45): < 10.5 µM
